This is one part of the list. Small differences around the control level are noise.

Sequences of proteins named here, by UniProt entry; tags and fusion partners are left off. A change or cut given only in a name is not applied to a line headed by its entry.
UniProt P12980: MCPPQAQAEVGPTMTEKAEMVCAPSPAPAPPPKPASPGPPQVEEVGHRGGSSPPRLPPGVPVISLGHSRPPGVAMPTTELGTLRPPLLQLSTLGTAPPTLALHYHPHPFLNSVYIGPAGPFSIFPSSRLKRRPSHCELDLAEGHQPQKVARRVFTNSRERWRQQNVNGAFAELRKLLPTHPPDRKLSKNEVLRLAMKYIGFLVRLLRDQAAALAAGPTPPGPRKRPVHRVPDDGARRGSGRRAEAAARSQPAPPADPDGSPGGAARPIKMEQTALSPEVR
UniProt P07311: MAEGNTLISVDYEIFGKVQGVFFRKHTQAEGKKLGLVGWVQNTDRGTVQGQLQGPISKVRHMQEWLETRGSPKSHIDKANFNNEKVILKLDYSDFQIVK
UniProt P11117: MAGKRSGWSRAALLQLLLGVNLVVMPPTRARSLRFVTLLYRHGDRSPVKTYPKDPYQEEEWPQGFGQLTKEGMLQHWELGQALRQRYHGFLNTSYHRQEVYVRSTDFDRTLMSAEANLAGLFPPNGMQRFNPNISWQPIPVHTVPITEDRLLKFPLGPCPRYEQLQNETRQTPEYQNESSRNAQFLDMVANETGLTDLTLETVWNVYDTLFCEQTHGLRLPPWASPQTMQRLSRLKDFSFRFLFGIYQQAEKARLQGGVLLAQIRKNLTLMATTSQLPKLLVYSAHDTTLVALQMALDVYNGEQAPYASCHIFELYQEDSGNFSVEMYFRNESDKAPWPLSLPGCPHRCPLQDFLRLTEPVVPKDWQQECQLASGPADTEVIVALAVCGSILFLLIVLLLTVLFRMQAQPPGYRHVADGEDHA
UniProt P02654: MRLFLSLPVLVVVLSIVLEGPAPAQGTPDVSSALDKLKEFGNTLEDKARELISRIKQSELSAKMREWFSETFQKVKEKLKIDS
UniProt P00374: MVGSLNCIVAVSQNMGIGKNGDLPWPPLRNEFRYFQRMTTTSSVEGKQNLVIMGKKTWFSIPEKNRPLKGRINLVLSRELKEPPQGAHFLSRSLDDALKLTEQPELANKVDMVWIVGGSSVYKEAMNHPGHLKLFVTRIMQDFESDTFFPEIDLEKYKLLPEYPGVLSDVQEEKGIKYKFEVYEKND
UniProt P11137: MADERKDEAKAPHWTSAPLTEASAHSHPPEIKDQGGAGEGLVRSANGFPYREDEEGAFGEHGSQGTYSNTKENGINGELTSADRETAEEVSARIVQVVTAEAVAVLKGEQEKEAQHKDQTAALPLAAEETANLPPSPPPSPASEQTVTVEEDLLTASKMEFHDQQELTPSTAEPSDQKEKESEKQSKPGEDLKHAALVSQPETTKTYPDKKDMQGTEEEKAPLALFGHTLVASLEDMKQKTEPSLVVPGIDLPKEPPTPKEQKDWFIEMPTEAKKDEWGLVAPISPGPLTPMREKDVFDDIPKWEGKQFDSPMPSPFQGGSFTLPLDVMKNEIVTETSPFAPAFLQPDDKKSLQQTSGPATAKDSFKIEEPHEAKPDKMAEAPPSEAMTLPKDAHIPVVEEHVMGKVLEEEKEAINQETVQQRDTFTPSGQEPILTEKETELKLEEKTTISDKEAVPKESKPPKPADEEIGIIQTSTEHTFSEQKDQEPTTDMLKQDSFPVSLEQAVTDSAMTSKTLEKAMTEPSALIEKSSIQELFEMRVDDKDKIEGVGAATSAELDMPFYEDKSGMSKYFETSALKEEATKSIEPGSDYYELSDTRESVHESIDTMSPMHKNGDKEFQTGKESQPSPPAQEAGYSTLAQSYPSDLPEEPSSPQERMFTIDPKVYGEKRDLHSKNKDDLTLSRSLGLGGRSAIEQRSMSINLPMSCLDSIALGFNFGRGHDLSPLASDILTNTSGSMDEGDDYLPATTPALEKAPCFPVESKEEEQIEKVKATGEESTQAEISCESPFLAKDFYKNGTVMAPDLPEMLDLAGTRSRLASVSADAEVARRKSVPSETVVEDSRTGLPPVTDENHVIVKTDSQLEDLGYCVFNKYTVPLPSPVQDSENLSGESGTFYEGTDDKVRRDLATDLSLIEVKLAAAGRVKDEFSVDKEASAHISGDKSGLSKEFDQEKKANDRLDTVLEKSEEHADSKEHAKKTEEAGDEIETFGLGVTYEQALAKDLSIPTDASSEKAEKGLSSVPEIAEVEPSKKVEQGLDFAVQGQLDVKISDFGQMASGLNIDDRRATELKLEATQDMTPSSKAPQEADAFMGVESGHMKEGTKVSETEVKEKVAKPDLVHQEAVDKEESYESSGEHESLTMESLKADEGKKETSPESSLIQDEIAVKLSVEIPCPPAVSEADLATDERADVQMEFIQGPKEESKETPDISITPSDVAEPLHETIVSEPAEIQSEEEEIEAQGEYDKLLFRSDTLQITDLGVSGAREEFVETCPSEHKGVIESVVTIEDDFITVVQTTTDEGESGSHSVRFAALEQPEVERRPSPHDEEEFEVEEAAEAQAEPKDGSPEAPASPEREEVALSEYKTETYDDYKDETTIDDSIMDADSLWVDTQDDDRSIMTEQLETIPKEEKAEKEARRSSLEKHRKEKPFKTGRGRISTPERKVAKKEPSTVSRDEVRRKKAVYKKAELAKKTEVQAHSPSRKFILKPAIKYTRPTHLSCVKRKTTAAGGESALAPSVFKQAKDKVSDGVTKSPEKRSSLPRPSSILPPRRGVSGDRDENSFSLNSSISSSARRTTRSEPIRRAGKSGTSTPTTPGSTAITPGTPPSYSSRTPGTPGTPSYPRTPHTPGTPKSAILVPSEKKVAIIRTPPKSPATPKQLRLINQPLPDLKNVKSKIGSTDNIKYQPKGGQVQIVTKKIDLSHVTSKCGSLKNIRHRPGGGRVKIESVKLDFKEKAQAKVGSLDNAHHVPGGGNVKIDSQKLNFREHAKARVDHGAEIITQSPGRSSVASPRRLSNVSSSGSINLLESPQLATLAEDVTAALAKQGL
UniProt P11142, whole entry, looked up: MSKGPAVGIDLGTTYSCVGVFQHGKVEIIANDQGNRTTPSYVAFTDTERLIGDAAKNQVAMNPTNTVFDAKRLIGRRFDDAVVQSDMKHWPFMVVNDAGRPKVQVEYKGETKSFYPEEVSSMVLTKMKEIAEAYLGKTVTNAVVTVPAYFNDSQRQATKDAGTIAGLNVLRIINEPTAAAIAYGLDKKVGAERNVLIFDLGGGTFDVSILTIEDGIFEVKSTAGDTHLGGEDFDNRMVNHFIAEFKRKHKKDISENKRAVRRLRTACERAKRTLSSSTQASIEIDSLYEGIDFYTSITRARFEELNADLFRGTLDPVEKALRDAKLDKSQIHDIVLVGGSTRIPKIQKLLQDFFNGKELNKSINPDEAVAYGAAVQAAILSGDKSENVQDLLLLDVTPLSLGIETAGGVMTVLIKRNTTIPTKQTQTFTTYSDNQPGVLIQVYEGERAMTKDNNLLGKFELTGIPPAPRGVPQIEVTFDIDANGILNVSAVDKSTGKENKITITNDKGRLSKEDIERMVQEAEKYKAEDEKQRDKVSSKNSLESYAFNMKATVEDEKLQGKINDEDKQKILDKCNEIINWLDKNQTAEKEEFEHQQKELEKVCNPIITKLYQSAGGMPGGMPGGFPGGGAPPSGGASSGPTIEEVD
UniProt P05019, whole entry: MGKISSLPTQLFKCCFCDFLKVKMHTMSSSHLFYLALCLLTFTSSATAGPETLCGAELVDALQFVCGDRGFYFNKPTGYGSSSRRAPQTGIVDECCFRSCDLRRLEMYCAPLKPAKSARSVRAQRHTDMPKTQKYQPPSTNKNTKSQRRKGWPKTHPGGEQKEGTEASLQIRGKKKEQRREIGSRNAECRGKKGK
UniProt P0CJ78: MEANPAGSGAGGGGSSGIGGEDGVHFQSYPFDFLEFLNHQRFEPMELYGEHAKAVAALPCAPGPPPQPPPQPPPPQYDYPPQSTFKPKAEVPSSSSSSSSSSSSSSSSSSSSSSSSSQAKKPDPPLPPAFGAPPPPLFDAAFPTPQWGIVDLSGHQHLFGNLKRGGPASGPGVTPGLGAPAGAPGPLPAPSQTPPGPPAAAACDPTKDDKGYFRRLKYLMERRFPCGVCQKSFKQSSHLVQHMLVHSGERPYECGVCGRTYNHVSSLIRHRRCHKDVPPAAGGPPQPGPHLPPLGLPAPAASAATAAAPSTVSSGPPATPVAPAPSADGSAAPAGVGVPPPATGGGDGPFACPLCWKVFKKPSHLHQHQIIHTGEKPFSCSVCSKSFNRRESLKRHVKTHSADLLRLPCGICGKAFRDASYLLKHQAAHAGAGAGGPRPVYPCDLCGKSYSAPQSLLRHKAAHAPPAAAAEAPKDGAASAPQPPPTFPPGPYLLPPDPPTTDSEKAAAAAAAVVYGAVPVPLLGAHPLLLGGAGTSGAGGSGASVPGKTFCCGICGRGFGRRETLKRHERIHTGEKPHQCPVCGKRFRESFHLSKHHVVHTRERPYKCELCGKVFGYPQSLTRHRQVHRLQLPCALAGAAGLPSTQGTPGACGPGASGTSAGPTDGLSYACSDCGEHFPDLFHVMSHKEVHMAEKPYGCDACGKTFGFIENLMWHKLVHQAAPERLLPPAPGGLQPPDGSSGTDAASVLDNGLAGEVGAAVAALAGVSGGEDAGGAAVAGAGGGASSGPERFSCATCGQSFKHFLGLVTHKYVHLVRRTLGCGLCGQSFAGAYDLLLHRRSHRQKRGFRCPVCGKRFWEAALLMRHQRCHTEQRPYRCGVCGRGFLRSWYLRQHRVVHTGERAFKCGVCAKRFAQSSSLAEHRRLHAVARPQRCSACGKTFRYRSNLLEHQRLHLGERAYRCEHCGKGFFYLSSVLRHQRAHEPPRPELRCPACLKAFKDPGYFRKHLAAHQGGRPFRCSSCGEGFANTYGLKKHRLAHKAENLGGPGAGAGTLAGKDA
UniProt P03971: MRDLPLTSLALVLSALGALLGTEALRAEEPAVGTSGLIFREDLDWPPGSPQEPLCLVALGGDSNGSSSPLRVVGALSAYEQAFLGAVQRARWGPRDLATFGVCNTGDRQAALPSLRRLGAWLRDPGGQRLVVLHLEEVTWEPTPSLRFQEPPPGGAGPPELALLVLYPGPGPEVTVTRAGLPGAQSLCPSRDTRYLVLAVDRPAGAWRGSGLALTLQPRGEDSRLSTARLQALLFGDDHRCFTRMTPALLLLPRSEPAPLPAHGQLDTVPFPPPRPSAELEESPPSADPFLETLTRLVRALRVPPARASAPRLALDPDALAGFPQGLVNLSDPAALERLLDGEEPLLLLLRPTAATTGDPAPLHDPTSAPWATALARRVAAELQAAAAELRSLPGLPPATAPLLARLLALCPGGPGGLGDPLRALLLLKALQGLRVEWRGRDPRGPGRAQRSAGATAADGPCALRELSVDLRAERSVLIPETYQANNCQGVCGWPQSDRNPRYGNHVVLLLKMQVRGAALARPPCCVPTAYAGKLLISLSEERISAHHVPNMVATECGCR
UniProt P09622, whole entry: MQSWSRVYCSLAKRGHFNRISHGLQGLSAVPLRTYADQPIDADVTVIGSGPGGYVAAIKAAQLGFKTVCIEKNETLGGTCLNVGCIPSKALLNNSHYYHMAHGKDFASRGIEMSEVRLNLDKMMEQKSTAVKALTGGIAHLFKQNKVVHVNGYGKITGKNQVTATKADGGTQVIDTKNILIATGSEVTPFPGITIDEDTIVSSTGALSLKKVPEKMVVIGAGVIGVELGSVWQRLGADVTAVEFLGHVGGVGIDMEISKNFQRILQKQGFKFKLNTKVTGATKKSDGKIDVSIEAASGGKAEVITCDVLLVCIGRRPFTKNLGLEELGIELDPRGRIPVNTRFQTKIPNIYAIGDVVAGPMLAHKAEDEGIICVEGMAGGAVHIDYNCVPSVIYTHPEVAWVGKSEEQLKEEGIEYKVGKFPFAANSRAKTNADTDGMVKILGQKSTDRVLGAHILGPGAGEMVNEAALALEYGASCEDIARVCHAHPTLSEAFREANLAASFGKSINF
UniProt P08240: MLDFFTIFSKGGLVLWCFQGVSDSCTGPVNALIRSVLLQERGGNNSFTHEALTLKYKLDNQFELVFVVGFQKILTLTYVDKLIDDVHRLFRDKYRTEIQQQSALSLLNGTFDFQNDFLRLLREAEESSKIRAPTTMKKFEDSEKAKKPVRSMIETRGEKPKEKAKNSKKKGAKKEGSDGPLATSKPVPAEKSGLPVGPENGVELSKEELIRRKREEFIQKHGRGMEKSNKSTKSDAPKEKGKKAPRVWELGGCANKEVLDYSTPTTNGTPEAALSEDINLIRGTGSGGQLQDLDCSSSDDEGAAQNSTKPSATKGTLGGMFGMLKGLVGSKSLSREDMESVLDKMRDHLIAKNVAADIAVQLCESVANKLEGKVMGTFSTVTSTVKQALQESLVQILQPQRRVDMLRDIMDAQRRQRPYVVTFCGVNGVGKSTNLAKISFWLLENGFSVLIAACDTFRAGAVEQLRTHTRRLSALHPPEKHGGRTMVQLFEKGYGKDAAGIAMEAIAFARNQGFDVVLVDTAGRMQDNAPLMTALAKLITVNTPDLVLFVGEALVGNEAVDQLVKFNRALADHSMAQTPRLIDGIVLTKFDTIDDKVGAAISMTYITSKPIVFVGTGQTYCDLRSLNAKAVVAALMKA

Compound in this experiment: CN[C@@H]1C[C@H]2O[C@@](C)([C@@H]1OC)n1c3ccccc3c3c4c(c5c6ccccc6n2c5c31)C(=O)NC4 [staurosporine]
The experiment in a line: log2 fold change of tryptic peptide abundance, ligand vs vehicle (limited proteolysis) (log2 ratio); higher = more trypsin-susceptible (destabilized). Particulars: ligand concentration: 20 uM; sample: K562 cleared lysate; digestion: 4 min, 22 C (HT-PELSA RT4min, Orbitrap Astral).
In the case of “LYL1 (peptide sequence: RPSHCELDLAEGHQPQK, peptide start residue: 132) (UniProt P12980)”, the log2 fold change was -0.157. With “VIL1 (peptide sequence: LMEVMNHVLGK, peptide start residue: 222) (UniProt P09327)”, the log2 fold change is 0.721. Turning to “HSPA5 (peptide sequence: LSSEDKETMEK, peptide start residue: 586) (UniProt P11021)”, the log2 fold change turned out to be 0.284. Turning to “ACYP1 (peptide sequence: VILKLDYSDFQIVK, peptide start residue: 86) (UniProt P07311)”, the log2 fold change came to 0.556.

In the case of “NR2F6 (peptide sequence: AFQEQVDKLGR, peptide start residue: 284) (UniProt P10588)”, the log2 fold change amounted to 0.368. As to “MYL1 (peptide sequence: HVLATLGEK, peptide start residue: 157) (UniProt P05976)”, the log2 fold change is -0.0941. With “SKI (peptide sequence: RSLHQELEFLR, peptide start residue: 585) (UniProt P12755)”, the log2 fold change stood at 0.87. To “ACP2 (peptide sequence: HVADGEDHA, peptide start residue: 415) (UniProt P11117)” belongs -0.0503. Regarding “APOC1 (peptide sequence: MREWFSETFQK, peptide start residue: 64) (UniProt P02654)”, the log2 fold change was 0.409.

With “DHFR (peptide sequence: EAMNHPGHLK, peptide start residue: 124) (UniProt P00374)”, the log2 fold change is 0.501. As for “UniProt P11137 (peptide sequence: IDLSHVTSK, peptide start residue: 1699)”, the log2 fold change was -0.213. To “SRF (peptide sequence: VPGNGAGLGPGRLER, peptide start residue: 44) (UniProt P11831)” belongs 0.45; to “EPB41 (peptide sequence: NFMESVPEPRPSEWDK, peptide start residue: 691) (UniProt P11171)”, 0.372. The same measure for “NEFH (peptide sequence: SPVKEEEKPQEVK, peptide start residue: 828) (UniProt P12036)”: -0.509; for “GUSB (peptide sequence: WLGANAFR, peptide start residue: 375) (UniProt P08236)”: -0.184. With “IMPDH2 (peptide sequence: HGFCGIPITDTGR, peptide start residue: 137) (UniProt P12268)”, the log2 fold change came out at 0.184. To “MYL4 (peptide sequence: ESNGTVMGAELR, peptide start residue: 145) (UniProt P12829)” belongs 0.241. To “NFIC (peptide sequence: EDFVLSITGK, peptide start residue: 90) (UniProt P08651)” belongs -0.214; to “HSPA8 (peptide sequence: ATVEDEKLQGK, peptide start residue: 551) (UniProt P11142)”, 0.711. The same measure for “CTSB (peptide sequence: HYGYNSYSVSNSEKDIMAEIYK, peptide start residue: 224) (UniProt P07858)”: 0.423; for “UniProt P05019 (peptide sequence: RLEMYCAPLKPAK, peptide start residue: 104)”: -0.144.

As for “SLC25A5 (peptide sequence: DFLAGGVAAAISK, peptide start residue: 11) (UniProt P05141)”, the log2 fold change was -0.189.

For the target “ENO1 (peptide sequence: SILKIHAR, peptide start residue: 2) (UniProt P06733)”, the log2 fold change was determined as 1.27. The same measure for “CLTB (peptide sequence: DLEEWNQR, peptide start residue: 135) (UniProt P09497)”: -0.143; for “UniProt P0DMM9 (peptide sequence: SHLPLALLPQTLLDQK, peptide start residue: 107)”: 0.075.

On to “RPLP0 (peptide sequence: GKAVVLMGK, peptide start residue: 49) (UniProt P05388)”, for which the log2 fold change came to 0.235. For the target “GLUD1 (peptide sequence: GASIVEDKLVEDLR, peptide start residue: 77) (UniProt P00367)”, the log2 fold change stood at 0.18.

Regarding “C0HKE1 (peptide sequence: NDEELNKLLGR, peptide start residue: 90) (UniProt P04908)”, the log2 fold change was 0.0908. On to “SPTA1 (peptide sequence: ADVVEAWIADKETSLK, peptide start residue: 1937) (UniProt P02549)”, for which the log2 fold change was 0.218. Turning to “HMGN2 (peptide sequence: EGNNPAENGDAKTDQAQK, peptide start residue: 65) (UniProt P05204)”, the log2 fold change was -0.162. “UniProt P0CJ78 (peptide sequence: GFFYLSSVLR, peptide start residue: 968)”: the log2 fold change is 0.453. As to “SNRPA (peptide sequence: MKGTFVER, peptide start residue: 97) (UniProt P09012)”, the log2 fold change turned out to be 0.206. Regarding “GSN (peptide sequence: TPSAAYLWVGTGASEAEK, peptide start residue: 598) (UniProt P06396)”, the log2 fold change was -0.499. In the case of “UniProt P03971 (peptide sequence: MTPALLLLPR, peptide start residue: 245)”, the log2 fold change is -0.343.

“DLD (peptide sequence: FPFAANSR, peptide start residue: 421) (UniProt P09622)”: the log2 fold change stood at 0.316. To “UniProt P10075 (peptide sequence: AFIWSSVLIEHQR, peptide start residue: 303)” belongs -0.726; to “UniProt P08240 (peptide sequence: KFEDSEK, peptide start residue: 138)”, 0.43; to “UROD (peptide sequence: QMLDDFGPHR, peptide start residue: 323) (UniProt P06132)”, 0.784. The same measure for “ERCC1 (peptide sequence: SNSIIVSPR, peptide start residue: 98) (UniProt P07992)”: 0.442.

For the origin of these results see the supplement of paper PMC12819154, “High-throughput peptide-centric local stability assay extends protein–ligand identification to membrane proteins, tissues and bacteria” (Nature Structural & Molecular Biology, 2025).
